Laboratory results as given in patent US20180071413A1 (INSERM INSTITUT NATIONAL DE LA SANTE ET DE LA RECHERCHE …, published 2018).
No constants are given. Whether binding was seen depends on the method and setting. Some binding calls cover weakened binding; strength is not graded here.

The chains behind the UniProt entries cited, without tags or fusion partners. Residues count along the entry.
UniProt Q9NZQ7, residues 19-290: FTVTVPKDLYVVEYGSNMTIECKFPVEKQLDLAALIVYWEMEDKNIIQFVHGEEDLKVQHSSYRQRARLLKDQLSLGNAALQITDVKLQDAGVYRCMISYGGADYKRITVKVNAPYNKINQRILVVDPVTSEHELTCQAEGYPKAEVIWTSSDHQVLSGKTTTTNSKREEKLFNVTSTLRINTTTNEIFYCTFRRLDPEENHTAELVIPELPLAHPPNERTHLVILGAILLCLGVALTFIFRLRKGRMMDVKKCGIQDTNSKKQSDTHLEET

Key:
human PD-L1 [1] = biological target: T1, human PD-L1 (human, UniProt Q9NZQ7 19-290); experiment: heading of the results section on cell binding assays
T1 construct: whole, on cells; Target presented on human breast cancer cell lines; The quantitative assays (IRF, IC50, Kd) used MDA-MB-231 cells; also called CD274; Programmed Cell Death 1 Ligand 1

human PD-L1 [2] = biological target: T1, human PD-L1; experiment: summary of the in vitro cell binding assays on MDA-MB-231 cells
human PD-L1 [3] = biological target: T1, human PD-L1; experiment: radioligand cell binding, 32 pM ^111In-PD-L1.3.1 on confluent breast cancer cells, specific binding after subtraction of 1,000-fold unlabeled excess, gamma counter
human PD-L1 [4] = biological target: T1, human PD-L1; experiment: radioligand cell binding, 32 pM ^111In-PD-L1.3.1 for 4 h at 37 °C or on ice on confluent breast cancer cells; non-specific binding (1,000-fold excess of unlabeled PD-L1.3.1) subtracted
human PD-L1 [5] = biological target: T1, human PD-L1; experiment: saturation binding of ^111In-PD-L1.3.1 on cells, 4 h on ice, non-specific binding (100 nM PD-L1.3.1) subtracted; the cell line is not printed on the sheet (MDA-MB-231 used in the subsequent binding assays)
human PD-L1 [6] = biological target: T1, human PD-L1; experiment: immunohistochemistry on frozen xenograft sections, 10 µg/ml PD-L1.3.1, peroxidase-conjugated rabbit anti-mouse antibody, DAB; 'PD-L1 blanc' is the blank control
human PD-L1 [7] = biological target: T1, human PD-L1; experiment: competition on MDA-MB-231 cells, 4 h on ice; increasing unlabeled PD-L1.3.1 against 20 pM ^111In-PD-L1.3.1 (competitor: the labelled form of the same antibody), gamma counting

Measured: binding

B1: ^111In-DTPA-PD-L1.3.1 (antibody, V domains shown)
VH: EVQLQQSGTELVKPGASVKLSCTTSGFNIQDTYMHWVKQRPEQGLEWIGWIDPANGNTKYDPKFQGKATIIADTSSNTAYLQLRGLTSEDTAVYYCARSGVSTAHFDYWGQGTTLTVSS
VL: QIVLSQSPAILSASPGEKVTMTCRASSSVSFMHWYQQKPGSSPKPWIYATSNLASGVPTRFSGSGSGTSYSLTLSRVEAEDAATYYCQQWSSYPRTFGGGTKLEIK
modifications: ITC-DTPA conjugate chelating ^111In; conjugated residues and chain not stated
binds: human PD-L1 [1] | human PD-L1 [2] | human PD-L1 [3] | human PD-L1 [4] | human PD-L1 [5]

B2: PD-L1.3.1 antibody (unlabeled) (antibody, V domains shown)
VH: EVQLQQSGTELVKPGASVKLSCTTSGFNIQDTYMHWVKQRPEQGLEWIGWIDPANGNTKYDPKFQGKATIIADTSSNTAYLQLRGLTSEDTAVYYCARSGVSTAHFDYWGQGTTLTVSS
VL: QIVLSQSPAILSASPGEKVTMTCRASSSVSFMHWYQQKPGSSPKPWIYATSNLASGVPTRFSGSGSGTSYSLTLSRVEAEDAATYYCQQWSSYPRTFGGGTKLEIK
notes: also called unlabeled PD-L1.3.1
binds: human PD-L1 [6] | human PD-L1 [7]
